This is an account of results in article PMC4235218.

Test [1] deals with T1, m2-peptide displayed on phage (m2-phage).
T1 sequence (peptide): CDRRDLPDWAIRAC
Nature of the test: far-Western, overlay or dot blot; qualitative dot blot: phages (2x10^10/dot) or CD4 (1 μg/dot) on nitrocellulose, envelope protein 2.5-5 μg/ml overnight at 4°C in 5% skim milk/TBS, bound envelope detected with HIVIg or mAbs; both purified.

The target of test [2] is T2, 2A6 peptide displayed on phage (phage 2A6).
T2 sequence (peptide): CDRRDLPQWAIREC
Put plainly: far-Western, overlay or dot blot; semi-quantitative dot blot: equal amounts of phages in two fold serial dilutions on nitrocellulose, gp120 CDC451 followed by HIVIg or CG10, densitometry; both purified.

For test [3], the target named is T1, m2-peptide displayed on phage (m2-phage). Described as above.
The target of test [4] is T3, scrambled version of the m2-peptide displayed on phage.
T3 sequence (peptide): CDLWRIRADRAPDC
Nature of the test: SPR; BIACORE T-200; p3-biotinylated phages (300 RU) on streptavidin-coated CM5 chips; 1 μM analyte (gp120 CDC451, CG10 or gp120 + CG10) for 2 min at 50 μl/min; 25°C, 20 mM sodium phosphate pH 7.0 (PBS); both purified. (Surface plasmon resonance follows binding to a sensor surface in real time, without labels.)

For test [5], the target named is T1, m2-peptide displayed on phage (m2-phage). Described as above.
Test [6] deals with T4, m3-peptide displayed on phage (m3-phage).
T4 sequence (peptide): CSRSDLPEWAVRTC
Described as above.

Test [7] addresses T5, m1-peptide displayed on phage (m1-phage).
T5 sequence (peptide): CDRRDLPQWAKREC
The description is as above.

Test [8] shares this target. Put plainly: ELISA; phages captured on wells by an anti-M13 mAb; gp120 CDC451, CD4 or pre-formed 1:1 gp120:CD4 complex added (5-10 μg/ml, 5% skim milk/TBS, 1 hr room temperature); gp120 detected with biotinylated 9G3, CD4 with biotinylated CG9; both purified. (An ELISA detects its analyte on a solid surface through an enzyme-linked reagent.)
Test [9] has the same target. Nature of the test: far-Western, overlay or dot blot; qualitative dot blot: phages (2x10^10/dot) or CD4 (1 μg/dot) on nitrocellulose, envelope protein 2.5-5 μg/ml overnight at 4°C in 5% skim milk/TBS, bound envelope detected with HIVIg or mAbs; both purified.
For test [10], the target named is HIV-1 BaL gp120, recombinant (HIV-1 (isolate BaL)). Nature of the test: ELISA; gp120 BaL (wild type or D368R) captured on wells by an immobilised antibody (b12, 1B6 or HIVIg); phages (2x10^10/well) or CD4 added; phages detected with anti-M13, CD4 with biotinylated CG9; both purified.
In test [11] the target is HIV-1 BaL gp120 D368R mutant (HIV-1 (isolate BaL)). The test is described as above.

These are yes or no findings as the source states them, for the method shown. For part of these data: Binding can be weak; no strength is given.

Consider HIV-1 BaL gp120, recombinant, for which the binding entry in test [1] is recorded as “binds”.

For “HIV-1 CDC451 gp120, monomeric recombinant”, the binding entry is on record as “binds” in test [2]; “binds” in test [3]; “no binding (tested: 1 μM)” in test [4]; “binds” in [5]; “binds” in test [6]; “binds” in test [7]. Besides, the binding result in test [8] and in [9] was “binds” in each case.

“soluble recombinant CD4 protein (D1-D4 domains) (receptor)”: the binding result in test [8] was “no binding (tested: 5–10 μg/ml)”.

With CDRRDLPDWAIRAC [m2-peptide displayed on phage (m2-phage)], the binding result in test [10] and in [11] was “binds” throughout.
